# Data: PubChem BioAssay AID504444 (National Center for Advancing Translational Sciences (NCATS), 2011)
# About 7,500 (2.1%) of roughly 360,000 compounds were called active. The inconclusive results got no clear call from the source; some entries with a clear call stand among them for comparison. Calls follow the shape of the dose curve; as a rule, active = well fitted inhibition curve with a large enough effect; inconclusive = small, poorly fitted or top-dose-only effect, or effect the other way; inactive = flat fitted curve, though single readings scatter. Where the call is inconclusive, the potency comes from a doubtful curve fit.
# Test: Nrf2 qHTS screen for inhibitors; also: nearly all actives have a fitted effect of over 60% in size
# Conditions: A549 ARE-Fluc reporter, luciferase luminescence, 18-24 h; series mostly up to 46 µM
# Summary of the method: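 Two sequential reads on A549 ARE_Fluc cells exposed to compound for 18-24 h: a CellTiter-Fluor fluorescence read for viability, then a luciferase luminescence read for Nrf2/ARE activity.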
# Potency is read from the fitted curve at half-maximal effect.
row,Structure (SMILES),Potency
1,Cc1cc(C)c2nc3nc(C)cc(C)c3c(N)c2c1,"inconclusive: 5.17 µM [falling, full curve, poor fit]"
2,COc1ccc(-c2cc(-c3nc4ccccn4c3NCc3ccccc3)ccc2OC)cc1,active: 14.6 µM
3,COc1ccc(CCn2c(NN=C3CCCCC3)nc3c2c(=O)[nH]c(=O)n3C)cc1,inactive
4,COc1ccc(C(O)c2nc3ccccc3n2C)cc1OC (stereo not given),active: 3.66 µM
5,COc1cccc(OCCSc2nnc3sc4ccccc4n23)c1,"inconclusive: 13 µM [falling, partial curve]"
6,Cc1ccc(CCNC(=O)c2cc3c(s2)-c2ccccc2OC3)cc1,active: 18.4 µM
7,COc1cccc(CN2CCN(Cc3cc4ccccc4[nH]3)CC2CCO)c1 (stereo not given),inactive
8,COc1ncccc1-c1nnn(-c2ccccc2)n1,"inconclusive: 5.8 µM [activator, partial curve]"
9,O=C(COC(=O)c1ccc(F)cc1)Nc1nc2ccc([N+](=O)[O-])cc2s1,"inconclusive: 16.4 µM [activator, partial curve]"
10,Brc1ccccc1/C=N/Nc1ccccn1,"inconclusive: 5.8 µM [activator, partial curve]"
11,CC(Sc1nnnn1C)C(=O)Nc1nc(-c2ccc(F)c(F)c2)cs1 (stereo not given),"inconclusive: 29.1 µM [falling, single point]"
12,CC(=O)c1cccc(OC(=O)c2cc(S(=O)(=O)N3CCOCC3)ccc2N2CCCC2)c1,"inconclusive: 18.4 µM [falling, partial curve, poor fit]"
13,OCC(CO)(CO)N=Cc1c(O)ccc2ccccc12,"inconclusive: 5.8 µM [falling, partial curve, poor fit]"
14,Cc1ccccc1OCCC(=O)N1CCN(S(=O)(=O)c2ccc(Br)cc2)CC1,"inconclusive: 14.6 µM [falling, partial curve]"
15,COc1cc([N+](=O)[O-])ccc1NC(=O)NCC1CCN(Cc2ccc(Cl)cc2)CC1,inactive
16,O=C(Nc1cccc(C(F)(F)F)c1)C1CCCN(S(=O)(=O)c2cccc3nsnc23)C1 (stereo not given),"inconclusive: 14.6 µM [falling, partial curve]"
17,O=C(O)c1cc2ccccc2c(N=Nc2cccnc2)c1O,active: 18.4 µM
18,CCCCNc1ccc(-c2nc(-c3ccccc3)no2)cc1[N+](=O)[O-],"inconclusive: 29.1 µM [falling, single point]"
19,COc1ccc(CC(=O)Nc2ccc3c(c2)CCC3)cc1S(=O)(=O)N1CCOCC1,inactive
20,CCCN(CCC)C1=CC(=[N+]2CCCC2)CC(C)(C)C1,active: 2.06 µM
21,CC1CN(C(=O)/C=C/c2ccc3c(c2)OCO3)CC(C)O1 (stereo not given),inactive
22,Cc1cccc(NC(=O)c2ccc3ccccc3n2)c1C,"inconclusive: 10.3 µM [activator, partial curve]"
23,COc1cc2nc(N(CCCN(C)C)C(=O)c3ccc(C(=O)c4ccccc4)cc3)sc2cc1OC,inactive

# An excerpt of the results above, as a working copy:
row,Structure (SMILES),Potency
22,Cc1cccc(NC(=O)c2ccc3ccccc3n2)c1C,"inconclusive: 10.3 µM [activator, partial curve]"
23,COc1cc2nc(N(CCCN(C)C)C(=O)c3ccc(C(=O)c4ccccc4)cc3)sc2cc1OC,inactive

# More structures follow:

row,Structure (SMILES),Potency
1,O=S(=O)(c1cccc(C(F)(F)F)c1)N1CCC(CO)(CCCc2ccccc2)CC1,"inconclusive: 18.4 µM [falling, single point]"
2,c1ccc(-n2cnc3cc(NCc4cccs4)ccc32)cc1,"inconclusive: 3.66 µM [activator, partial curve]"
3,CC(=O)Nc1ccc(OCC(=O)NC(C)C(C)C)cc1 (stereo not given),"inconclusive: 29.1 µM [activator, single point]"
4,CCOC(=O)C1=C(C(=O)OCC)c2ccc(OC)c(OC)c2C1,"inconclusive: 20.6 µM [falling, single point]"
5,COc1ccc(C[C@@H]2OC3(C=CC(=O)C=C3)O[C@H]2Cc2ccc(OC)cc2)cc1,"inconclusive: 18.4 µM [falling, single point]"
6,COc1c(Cl)cc(Br)c(OC)c1C(=O)NC(=O)Nc1nc(C)cc(C)n1,inactive
7,Cc1nc2cc(-c3ccc(Cl)cc3)nn2c(NCCN(C)C)c1C,"inconclusive: 13 µM [activator, partial curve, poor fit]"
8,COc1ccc(CCNC(=O)CN2C(=O)CCSc3ccccc32)c(OC)c1,"inconclusive: 3.66 µM [falling, full curve, poor fit]"
9,CC1(C)NC(=O)N(CC(O)CNC23CC4CC(CC(C4)C2)C3)C1=O (stereo not given),inactive
10,Cc1ccnc(Cc2ccccc2)n1,inactive
11,CC(C)(C)c1ccc(C(=O)N2CCC(C(=O)NC3CCCCCC3)CC2)cc1,"inconclusive: 18.4 µM [activator, partial curve, poor fit]"
12,Cc1nc(SCC(=O)NCC(F)(F)F)c2c(-c3cccs3)csc2n1,"inconclusive: 20.6 µM [falling, partial curve]"
13,CC(C)(C)NC(=O)CON=C1c2ccccc2-c2ccccc21,"inconclusive: 16.4 µM [falling, partial curve]"
14,Cc1ccc(-n2nc3cc(C)c(N)cc3n2)cc1,"inconclusive: 0.231 µM [activator, full curve, poor fit]"
15,O=C(NCCOc1ccccc1)c1ccccc1NC(=O)C1CCCO1 (stereo not given),"inconclusive: 3.66 µM [activator, full curve]"
16,CC(/C=N/Nc1nnc2c(n1)[nH]c1ccccc12)=C\c1ccco1,"inconclusive: 16.4 µM [activator, single point]"
17,CC(C)NC(=O)CSc1nc2ccccc2nc1N1CCCCC1,"inconclusive: 11.6 µM [falling, partial curve, poor fit]"
18,CCN(CC)c1ccc(NC(=O)COc2ccccc2C)cc1S(=O)(=O)Nc1ccccc1OC,"inconclusive: 13 µM [falling, partial curve, poor fit]"
19,O=C(NC1CCCC1)c1ccc2nc(-c3ccco3)c(-c3ccco3)nc2c1,inactive
20,Cc1ccc(NC2=NCC(Cc3ccc(Br)cc3)S2)cc1 (stereo not given),"inconclusive: 29.1 µM [activator, single point]"
21,O=C(N/N=C\c1ccncc1)c1ccccc1O,"inconclusive: 23.1 µM [activator, single point]"
22,Nc1sccc1C(=O)c1ccc(Cl)cc1,"inconclusive: 10.3 µM [activator, partial curve]"
